Earlier results as cited in patent US20230218721A1, “INCRETIN ANALOGUE, PREPARATION METHOD THEREFOR, AND USE THEREOF” (ZHEJIANG DOER BIOLOGICS CO., LTD., priority 2020, published 2023).
At least one compound was matched to its structure with a doubt left.

Conditions: clinical, treatment of obesity; cited from earlier work

CCCCCCCCCCCCCCCC(=O)N[C@@H](CCC(=O)NCCCC[C@H](NC(=O)[C@H](C)NC(=O)[C@H](C)NC(=O)[C@H](CCC(N)=O)NC(=O)CNC(=O)[C@H](CCC(=O)O)NC(=O)[C@H](CC(C)C)NC(=O)[C@H](Cc1ccc(O)cc1)NC(=O)[C@H](CO)NC(=O)[C@H](CO)NC(=O)[C@@H](NC(=O)[C@H](CC(=O)O)NC(=O)[C@H](CO)NC(=O)[C@@H](NC(=O)[C@H](Cc1ccccc1)NC(=O)[C@@H](NC(=O)CNC(=O)[C@H](CCC(=O)O)NC(=O)[C@H](C)NC(=O)[C@@H](N)Cc1cnc[nH]1)[C@@H](C)O)[C@@H](C)O)C(C)C)C(=O)N[C@@H](CCC(=O)O)C(=O)N[C@@H](Cc1ccccc1)C(=O)N[C@H](C(=O)N[C@@H](C)C(=O)N[C@@H](Cc1c[nH]c2ccccc12)C(=O)N[C@@H](CC(C)C)C(=O)N[C@H](C(=O)N[C@@H](CCCNC(=N)N)C(=O)NCC(=O)N[C@@H](CCCNC(=N)N)C(=O)NCC(=O)O)C(C)C)[C@@H](C)CC)C(=O)O [Liraglutide]
actual weight loss: about 5.6 kg
